As usually defined, the EC50 is the midpoint of the concentration-response curve. Higher therefore signals a need for much substance.

The assay is described as follows: cells. The conditions noted are these: Homo sapiens, SKNBE2, 72 h.

The molecule `COc1cc(Nc2ncc3c(n2)-c2ccc(Cl)cc2C(c2c(F)cccc2OC)=NC3)ccc1C(=O)O` [ALISERTIB] came in with an EC50 of 40.9 nM.

The record behind these values is ChEMBL document CHEMBL4665673, “Monomeric Targeted Protein Degraders” (J Med Chem, 2020).
